# Reference: publication PMC12379596
# Sequences of proteins named here, by UniProt entry; tags and fusion partners are left off. A change or cut given only in a name is not applied to a line headed by its entry.
# UniProt R0M6A3: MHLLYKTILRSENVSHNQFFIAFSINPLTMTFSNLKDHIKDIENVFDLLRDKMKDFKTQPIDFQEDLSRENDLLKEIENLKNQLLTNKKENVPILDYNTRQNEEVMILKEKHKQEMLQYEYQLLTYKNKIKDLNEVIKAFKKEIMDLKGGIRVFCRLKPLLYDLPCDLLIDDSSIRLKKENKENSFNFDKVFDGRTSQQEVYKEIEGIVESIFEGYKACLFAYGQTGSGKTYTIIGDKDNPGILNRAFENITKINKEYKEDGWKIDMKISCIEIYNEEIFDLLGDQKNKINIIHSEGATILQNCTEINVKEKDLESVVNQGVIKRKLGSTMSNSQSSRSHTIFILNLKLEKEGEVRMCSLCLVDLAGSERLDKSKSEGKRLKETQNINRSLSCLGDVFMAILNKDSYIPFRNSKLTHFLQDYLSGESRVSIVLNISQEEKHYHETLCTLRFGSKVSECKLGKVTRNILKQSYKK
# UniProt R0M2W3: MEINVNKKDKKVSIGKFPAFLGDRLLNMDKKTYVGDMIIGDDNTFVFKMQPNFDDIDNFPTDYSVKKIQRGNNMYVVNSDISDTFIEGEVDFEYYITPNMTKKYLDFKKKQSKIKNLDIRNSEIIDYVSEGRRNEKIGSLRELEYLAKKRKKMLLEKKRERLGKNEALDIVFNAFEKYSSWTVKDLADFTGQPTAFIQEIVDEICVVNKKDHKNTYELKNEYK
# No constants are given. Whether binding was seen depends on the method and setting. Binding seen in cells or lysates may run through a third protein. A yes stands for co-enrichment or nearness to the bait. Other partners may have been found. Tags and fused reporters may be left off the sequences shown.
# T1: B. mori chitin deacetylase 8 (recombinant His-tagged BmCDA8 from pCold-TF) (B. mori) (UniProt H9JW43)
# T1 sequence: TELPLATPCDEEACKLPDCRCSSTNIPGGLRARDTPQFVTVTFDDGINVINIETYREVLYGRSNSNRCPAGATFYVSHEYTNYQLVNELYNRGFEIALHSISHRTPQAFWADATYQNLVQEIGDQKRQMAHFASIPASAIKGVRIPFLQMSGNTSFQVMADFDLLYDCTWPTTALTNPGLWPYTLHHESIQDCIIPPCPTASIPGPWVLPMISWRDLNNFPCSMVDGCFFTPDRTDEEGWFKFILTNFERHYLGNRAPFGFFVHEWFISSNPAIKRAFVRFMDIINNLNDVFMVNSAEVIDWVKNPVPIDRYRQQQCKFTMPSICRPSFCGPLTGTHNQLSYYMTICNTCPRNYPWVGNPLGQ
# Target: T1, B. mori chitin deacetylase 8 (recombinant His-tagged BmCDA8 from pCold-TF) (B. mori)
# Assay: affinity purification with mass spectrometry; His-tagged recombinant BmCDA8 (pCold-TF) as bait incubated with total proteins extracted from N. bombycis; Dynabeads His-Tag Isolation & Pulldown kit; SDS-PAGE, silver staining, mass spectrometry of the pulled-down proteins; control pCold-TF empty plasmid; only the target purified
row,Molecule,binding
1,Kinesin-2 (from UniProt R0M6A3),binds
2,General transcription factor IIF subunit 2 (from UniProt R0M2W3),binds
3,"Uncharacterized protein R0KWK5 (protein, UniProt R0KWK5 1-187) MLYQIIYWINMCKSISVTIDSPISNYQEKDVHSSHVYANCISTYTGKDSEFSSESEGSEEQPSKDSNLKDSSLKDCYKPNNSKIICVDYPEVNAIYEKRLCYDIDSYYCTLRETEEQDKTSTTFCAKVYKSPCYFLFFLVVLCALIILSAYGVIYRKYWVFFIMFFICIVGLGAWAIKKSIERIPDD",binds
4,"Vacuolar proton pump subunit D (protein, UniProt R0KZ58 1-214) MFMPPHKMADQRLQVFPTRMNLKIVDQKEKSAEKGWMLLKRKSDALKQRYKAISKEFKDKQSAITKSLNDAFFKLSEAEFLGGNILMYIHECQKQPVYVDVSTELVSGVSLTSFKMDRSSIKPIFWLDRSGPILNECRVMFLDVLDNLIELCALKNSFIVLEKILMSTNRRVNALEFSVIPKLQNTISYINAELDEQDREDFFRLKKIQNLKKK",binds
5,"Target SNARE coiled-coil region (protein, UniProt R0M916 1-91) MTQEDSEEEAKIFTTRVKTLKHIAIDLSHAINAQNDKLNGLEPGFNQTITNLFKNIKNMKENDPKRFRAWVYFLGGTMCLGFLFFVLFILT",binds
6,"Uncharacterized protein R0MF04 (protein, UniProt R0MF04 1-332) MIQKKNSKISYVYTHKMQVLMTDQNNINFEAVQFTHKMVHLKSVKVYFYLILINHFLFKNRIHSAESLDYSSNETSMGCLSLNEEHKELFNNEQEKLSIEAQLQKNSIKLEKLKVHESINSSPATNESENIPKDFIALQDLIFKTSMRLNYLLKKTLPTLNKDLDEITAILFKIREKIIKMSKKSQTTNISLIGKIIQFFRKKPATQELPFLEIIRMYYEERITVYVCIYLRKHNMKDKSEKLHMKFNYFGFELYKMKVSRDFQDLDKIHGEFIESEIHTNAEKIFKEKERLLISIGRYKKQANLVLSIFTKFNTLTAEEFKADEEAKRYLM",binds
7,"Tail completion protein S (protein, UniProt R0MFQ0 1-71) MSADIAKKLRQRQQQRIKSQKAPEGSPFAPRKRPPVRAKQGRIKREMFAKLRTNRYMKASGGDSALVVEFA",binds
8,"Uncharacterized protein R0MH05 (protein, UniProt R0MH05 1-162) MKFLEIKQILRTNEILKTIQEQYPIILDLEVYSCKNSKIYKMYKKTPKPLRYLLETLQRVYPDYSFIGEDWSNFKKLDYQNVANELIYSFLTFYKVKEKVDELVQFLGLIIDKTVFIDGCEIFSYTSREGPFEKDNWHFCFLFYSRSNKRVLFLSVRNTEIV",binds
9,"DNA-directed RNA polymerase I subunit RPA12 (protein, UniProt R0MJ59 1-99) MFCACGTLVNPKANSNVLKCGRCENPLDVNRMQEIQMSKKIEQKVDLEIKEVKGAKIKYKCTNCGAEEMMYNTAQLRSADEGQTVFYSCKCGYKQTVQS",binds
10,"Uncharacterized protein R0MNI3 (protein, UniProt R0MNI3 1-395) MWAEKSVFEDTVINLKLNEPKSRVIYVKERFKQLVGKRLYKFMNRKCCKEAIMRLEKNEDFELLYFSSYFECYESFRIFEKNSRFFGLSKNPRDEKNTNKTIMNPKMFTQRVDKMIEKDLEKLSDNPEKSMPYKFYLNFLCKRKSVLDKNSAQKTFKLLVKKCFDDLKSKMLKKEIFFHIGGKYNVNYYFKELYNQAGKAVKEFQEKYEIADLKYKDVIFQKICESFHENLFNLQANIIDDLFKTDFIEEQVSKIFGIDVKFPDDISNVENIIFDCLNMLTYLSDFYCISGDSIYNTFNYPLIFNTEHKCKIVSCLKIQFDTQFSNDFVKIEAFNEKGGKVEFNRNVHYALKFNSNWEIYCTLEVLNKLNIKKIKIAIKRKKLCKTIELNKYLSN",binds
11,"CDT1 geminin-binding domain-containing protein (protein, UniProt R0KLY5 1-445) MKTKNLKDYLNKNKKKVKVIEDSRARESICKTIEEIVFSDEILTSDIMSSDLLSEVDCKIKKSKKESKYIESKESESIGSGAIEVTSSIESNPIEVVPIECKPIENKHLECKPIEVTTPIYTTPIEETTPIEVSNLDSRINKIKQFTNLNFNLDLNKLDTYLILPKPLLRLLKIFKSLLTIQNYNSIRKLTSIFIKVKGSIERTLRTRIEEEDIKKIYYLLGDKIEIKNLKIEDKGEMVKTFTFKIKCTGEEMEKRMREWCIEEKEKEVPCREWDNEGGEECGEDVKEMDGKEMNGKDKEVDGNNPLSTSNPPSIDNPISPISNPMPPSNLTTPSSVITPLLTPSTKALNKTNLILERIKEKELKRKQDFIKKIQKKNEERDLIKRILILFKKEGKQALKMKDVIKILEIFEGERQIKRIVKENPEEFEIREISEEKYLIYKKVI",binds
12,"Uncharacterized protein R0KN04 (protein, UniProt R0KN04 1-133) MNKLYLDINVPDLENFDFEQPLTISMKEELVIYNLFVERFLWLSYMKDSFFKSSIESIAEKLKIRNRSCSFAKHYNISLMKGCSDIFYFFCDNNINIVNLHEMCLIKLQNGRFYYVQQDLSSNRSKYEFLFDY",binds
13,"Uncharacterized protein R0KT40 (protein, UniProt R0KT40 1-140) MLSKIEEKLFNQEEGESEVSYFSFRIREELENLHFYINKLRRSIQIYTKPQNLNAEINSLLSNILKDIQTFKRTEESKDKENFMTKAKICHKKIIDVFWKYRLYLIDKKRNIKLIIKTFEKVSTCKVKIDAYLEKLISLS",binds
